Reference: patent US20030082173A1 (ST JUDE CHILDREN S RESEARCH HOSPITAL, published 2003)
Results are given in words; binding and its absence hold for the method and conditions named. In cells and extracts the contact can be indirect. Some binding calls cover weakened binding; strength is not graded here. Sequences can lack the tags named with a protein.

Sequences of proteins named here, by UniProt entry; tags and fusion partners are left off.
UniProt P49069: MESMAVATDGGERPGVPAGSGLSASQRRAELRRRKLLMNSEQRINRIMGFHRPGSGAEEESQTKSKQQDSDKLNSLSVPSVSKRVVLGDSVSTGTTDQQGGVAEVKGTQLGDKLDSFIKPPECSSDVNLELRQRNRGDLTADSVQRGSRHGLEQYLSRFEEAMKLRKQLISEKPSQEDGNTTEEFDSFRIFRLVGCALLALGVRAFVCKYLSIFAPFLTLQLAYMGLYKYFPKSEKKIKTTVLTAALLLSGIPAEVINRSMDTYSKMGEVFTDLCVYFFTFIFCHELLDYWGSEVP

Target: T1, TACI-1 with an N-terminal FLAG tag (human) (UniProt O14836)
T1 sequence: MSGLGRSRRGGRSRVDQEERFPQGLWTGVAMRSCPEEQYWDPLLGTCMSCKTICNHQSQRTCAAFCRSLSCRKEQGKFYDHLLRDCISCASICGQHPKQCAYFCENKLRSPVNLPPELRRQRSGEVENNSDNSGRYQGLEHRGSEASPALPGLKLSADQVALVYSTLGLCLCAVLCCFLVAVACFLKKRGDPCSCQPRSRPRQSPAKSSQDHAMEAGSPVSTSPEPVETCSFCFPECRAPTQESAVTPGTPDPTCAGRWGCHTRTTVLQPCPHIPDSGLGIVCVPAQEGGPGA
Assay: co-immunoprecipitation from 293T lysates with anti-FLAG agarose, Western blot with anti-CAML

Substance: calcium-signal modulating cyclophilin ligand (CAML), human, full length (from UniProt P49069 1-296)
- binding: binds
